Publication PMC9925306
These are yes or no findings as the source states them, for the method shown. Binding seen in cells or lysates may run through a third protein. Some entries that bind do so weakly or less than the wild type. Where a sequence is shown, tags or fusion partners need not be part of it.

By UniProt entry, the sequences of proteins in these tests, tags left out.
UniProt P03126: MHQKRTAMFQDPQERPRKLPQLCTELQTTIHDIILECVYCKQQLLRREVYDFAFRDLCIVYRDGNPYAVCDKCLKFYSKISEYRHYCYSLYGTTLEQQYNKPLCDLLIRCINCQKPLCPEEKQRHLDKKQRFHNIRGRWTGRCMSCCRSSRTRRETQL
UniProt P06463: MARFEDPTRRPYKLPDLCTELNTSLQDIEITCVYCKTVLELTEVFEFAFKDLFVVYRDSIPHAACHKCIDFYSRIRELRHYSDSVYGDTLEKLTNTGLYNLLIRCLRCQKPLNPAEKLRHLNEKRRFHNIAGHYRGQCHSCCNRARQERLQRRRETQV

Legend:
[1] = target: 3xFLAG-HPV16 E6 (HPV16) (UniProt P03126); assay: co-IP; HEK-293T co-transfected with pCineo-3xFLAG HPV16 E6 or E7 and pSpica-N1 (Gluc1 fusion); lysis in 50 mM Tris-HCl pH7.4, 150 mM NaCl, 1 mM EDTA, 1% Triton X-100; anti-Flag M2 magnetic beads overnight; blot with anti-Gaussia luciferase antibody
[2] = target: Gluc2-HPV16 E6 (HPV16) (UniProt P03126); assay: split reporter; Gaussia princeps luciferase complementation assay (GPCA): HEK-293T co-transfected with 100 ng pSpica-N2-HPV E6 or E7 (Gluc2) and 100 ng pSpica-N1 (Gluc1, DNA repair library); 24 h, Renilla lysis buffer 30 min at room temperature, luminescence as RLU or normalized luminescence ratio (NLR)
[3] = target: Gluc2-HPV18 E6 (HPV18) (UniProt P06463); assay: as above
[4] = target: Gluc2-HPV39 E6 (HPV39) (UniProt P24835); assay: as above
[5] = target: Gluc2-HPV33 E6 (HPV33) (UniProt P06427); assay: as above

Measured: binding

B1: Gluc1-RMI1 (protein, UniProt Q9H9A7 1-625)
chain: MNVTSIALRAETWLLAAWHVKVPPMWLEACINWIQEENNNVNLSQAQMNKQVFEQWLLTDLRDLEHPLLPDGILEIPKGELNGFYALQINSLVDVSQPAYSQIQKLRGKNTTNDLVTAEAQVTPKPWEAKPSRMLMLQLTDGIVQIQGMEYQPIPILHSDLPPGTKILIYGNISFRLGVLLLKPENVKVLGGEVDALLEEYAQEKVLARLIGEPDLVVSVIPNNSNENIPRVTDVLDPALGPSDEELLASLDENDELTANNDTSSERCFTTGSSSNTIPTRQSSFEPEFVISPRPKEEPSNLSIHVMDGELDDFSLEEALLLEETVQKEQMETKELQPLTFNRNADRSIERFSHNPNTTNNFSLTCKNGNNNWSEKNVSEQMTNEDKSFGCPSVRDQNRSIFSVHCNVPLAHDFTNKEKNLETDNKIKQTSSSDSHSLNNKILNREVVNYVQKRNSQISNENDCNLQSCSLRSSENSINLSIAMDLYSPPFVYLSVLMASKPKEVTTVKVKAFIVTLTGNLSSSGGIWSITAKVSDGTAYLDVDFVDEILTSLIGFSVPEMKQSKKDPLQYQKFLEGLQKCQRDLIDLCCLMTISFNPSLSKAMVLALQDVNMEHLENLKKRLNK
binds: all assays above
